Measured data: PubChem BioAssay AID1259405 (NCATS, 2018)

Purpose: 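Silenced genes that increase secreted GFP made by CHO cells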 (primary screen)
Cell system: Chinese hamster CHO-K1 ovary cells with stable secreted eGFP expression
Reagents: single siRNA against mouse genes, 0.8 pmol siRNA per well (2 µl of 400 nM stock)
Timing: 3 days
Measured: 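Percent of the per-plate non-targeting control median for intracellular GFP per well by laser scanning cytometry and for cell viability by ATP luminescence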
Scale: GFP, % of control: higher = more GFP per well, higher productivity; viability (ATP), % of control: higher = more viable cells (more ATP)
Rule for the call: 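a knock-down is called active if GFP reaches 120% or more of non-targeting control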
Here is a random part of about 50,000 reagents tested. About 4,000 of all reagents (8%) count as active. 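Mouse siRNA library applied to hamster cells; one well for each siRNA.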 The numbers tell different reagents against one gene apart. Reagent sequences are not shown.

target gene | siRNA no. | GFP, % of control | viability (ATP), % of control | outcome
Slc12a3 | 1 | 105 | 90.1 | inactive
Slc12a3 | 2 | 66.9 | 62.9 | inactive
Slc12a3 | 3 | 97.3 | 97.5 | inactive
Ybx2 | 1 | 80.7 | 100 | inactive
Ybx2 | 2 | 57.9 | 70.7 | inactive
Ybx2 | 3 | 114 | 94.8 | inactive
Sh3tc2 | 1 | 86.9 | 76.1 | inactive
Sh3tc2 | 2 | 138 | 103 | active
Sh3tc2 | 3 | 44.4 | 40.6 | inactive
Ppp1r12c | 1 | 98.2 | 93.9 | inactive
Ppp1r12c | 2 | 88.1 | 54.5 | inactive
Ppp1r12c | 3 | 92.5 | 86.7 | inactive
Pole3 | 1 | 72.9 | 85.7 | inactive
Pole3 | 2 | 45.2 | 30 | inactive
Pole3 | 3 | 104 | 77.7 | inactive
Cdc37 | 1 | 143 | 109 | active
Cdc37 | 2 | 84.6 | 79.1 | inactive
Cdc37 | 3 | 75.9 | 162 | inactive
Papolb | 1 | 110 | 120 | inactive
Papolb | 2 | 84.4 | 76.7 | inactive
Ncoa1 | 1 | 65.5 | 75 | inactive
Ncoa1 | 2 | 62.5 | 73.2 | inactive
Ncoa1 | 3 | 116 | 85.9 | inactive
Amz1 | 1 | 58.9 | 96 | inactive
Amz1 | 2 | 81.2 | 93.4 | inactive
Amz1 | 3 | 103 | 88.4 | inactive
Espl1 | 1 | 94.5 | 60.5 | inactive
Espl1 | 2 | 91.1 | 47.9 | inactive
Sprr2d | 1 | 114 | 41.7 | inactive
Sprr2d | 2 | 190 | 132 | active
Sprr2d | 3 | 137 | 112 | active
Sertad1 | 1 | 203 | 101 | active
Sertad1 | 2 | 78.4 | 59.1 | inactive
Sertad1 | 3 | 92.2 | 96.6 | inactive
Vdac1 | 1 | 130 | 106 | active
Vdac1 | 2 | 45.4 | 45.1 | inactive
Vdac1 | 3 | 29.5 | 75.6 | inactive
Lrrc25 | 1 | 58 | 62.5 | inactive
Lrrc25 | 2 | 73.9 | 62.3 | inactive
Lrrc25 | 3 | 28.6 | 17.6 | inactive
A430090L17Rik | 1 | 96.1 | 79.2 | inactive
A430090L17Rik | 2 | 74.1 | 82.5 | inactive
A430090L17Rik | 3 | 82.2 | 77.9 | inactive
Ppp6c | 1 | 71.2 | 86.7 | inactive
Ppp6c | 2 | 85.1 | 80.5 | inactive
Prl8a1 | 1 | 102 | 81.6 | inactive
Prl8a1 | 2 | 108 | 94.1 | inactive
Prl8a1 | 3 | 76 | 65.9 | inactive
Krtap31-1 | 1 | 36.4 | 61.6 | inactive
Krtap31-1 | 2 | 84.5 | 81.2 | inactive
Krtap31-1 | 3 | 67.2 | 82 | inactive
Mettl25b | 1 | 42.7 | 40.9 | inactive
Mettl25b | 2 | 75.9 | 69.1 | inactive
Mettl25b | 3 | 146 | 147 | active
Mettl25b | 4 | 83.3 | 87 | inactive
Mettl25b | 5 | 56.8 | 77.3 | inactive
Mettl25b | 6 | 68.9 | 86.8 | inactive
Nova2 | 1 | 65.6 | 54.8 | inactive
Nova2 | 2 | 134 | 90.1 | active
Trip4 | 1 | 84.5 | 85 | inactive
Trip4 | 2 | 73.1 | 81.5 | inactive
Trip4 | 3 | 82.3 | 87.2 | inactive
Paxip1 | 1 | 122 | 92.5 | active
Paxip1 | 2 | 81.7 | 42.1 | inactive
Paxip1 | 3 | 95 | 113 | inactive
Slc19a1 | 1 | 71.2 | 104 | inactive
Slc19a1 | 2 | 90.1 | 78.6 | inactive
Slc19a1 | 3 | 83.4 | 96 | inactive
Cxcr1 | 1 | 113 | 106 | inactive
Cxcr1 | 2 | 85.7 | 74.2 | inactive
Cxcr1 | 3 | 70.6 | 77.2 | inactive
Gpr152 | 1 | 49.1 | 68.9 | inactive
Gpr152 | 2 | 84.2 | 80.3 | inactive
Gpr152 | 3 | 67.2 | 86.8 | inactive
Neurog3 | 1 | 81.2 | 63.6 | inactive
Neurog3 | 2 | 102 | 69.8 | inactive
Neurog3 | 3 | 99.4 | 129 | inactive
Sft2d2 | 1 | 42.8 | 38 | inactive
Sft2d2 | 2 | 66.5 | 98.1 | inactive
Sft2d2 | 3 | 58.6 | 71.5 | inactive
Nrep | 1 | 76.6 | 85.9 | inactive
Nrep | 2 | 83.1 | 73.4 | inactive
Nrep | 3 | 86.6 | 105 | inactive
Nphp1 | 1 | 37.7 | 98.3 | inactive
Nphp1 | 2 | 63 | 80.9 | inactive
Nphp1 | 3 | 100 | 118 | inactive

Taken from above.
Pole3 #2, GFP, % of control: 45.2
Paxip1 #2, GFP, % of control: 81.7
Entry for Paxip1 #3 in “viability (ATP), % of control”: 113
Nova2 #2, outcome: active
Ppp1r12c #3, outcome: inactive
Under “outcome”, Nova2 #1 is entered as inactive
